For test [1], the target named is T1, Transforming growth factor (TGF)-β-inducible gene-h3 (βig-h3) (human (endogenous in Saos-2)) (UniProt Q15582).
T1 sequence: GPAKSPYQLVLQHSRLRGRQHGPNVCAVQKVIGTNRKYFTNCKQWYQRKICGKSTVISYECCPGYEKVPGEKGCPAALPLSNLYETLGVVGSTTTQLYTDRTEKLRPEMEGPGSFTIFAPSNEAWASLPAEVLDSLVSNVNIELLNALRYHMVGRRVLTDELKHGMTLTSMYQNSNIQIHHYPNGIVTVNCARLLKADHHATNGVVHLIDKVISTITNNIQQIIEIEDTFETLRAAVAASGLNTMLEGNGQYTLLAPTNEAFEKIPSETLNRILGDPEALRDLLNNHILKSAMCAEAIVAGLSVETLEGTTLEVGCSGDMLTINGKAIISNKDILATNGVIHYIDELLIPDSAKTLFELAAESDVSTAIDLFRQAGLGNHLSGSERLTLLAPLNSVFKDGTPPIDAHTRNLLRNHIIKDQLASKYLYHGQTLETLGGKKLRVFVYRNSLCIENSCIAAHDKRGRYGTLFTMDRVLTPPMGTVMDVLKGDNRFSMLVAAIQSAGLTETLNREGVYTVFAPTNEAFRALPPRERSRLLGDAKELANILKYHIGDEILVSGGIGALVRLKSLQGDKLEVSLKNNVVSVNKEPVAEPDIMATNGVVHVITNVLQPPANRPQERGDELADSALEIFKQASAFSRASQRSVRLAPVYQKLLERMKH
Nature of the test: co-IP; Saos-2 cells lysed in 1% OG buffer; lysates precipitated with protein A-agarose pre-bound with anti-βig-h3, anti-integrin α2 or anti-integrin β1 antibodies, four washes; Western blot of the immune complexes; anti-IgG as negative control. A general note: A western blot detects proteins with antibodies after separation by electrophoresis.

By UniProt entry, the sequences of proteins in these tests, tags left out. Where a name states a change or a piece, a line headed by the entry shows the natural chain unless it says otherwise.
UniProt P17301: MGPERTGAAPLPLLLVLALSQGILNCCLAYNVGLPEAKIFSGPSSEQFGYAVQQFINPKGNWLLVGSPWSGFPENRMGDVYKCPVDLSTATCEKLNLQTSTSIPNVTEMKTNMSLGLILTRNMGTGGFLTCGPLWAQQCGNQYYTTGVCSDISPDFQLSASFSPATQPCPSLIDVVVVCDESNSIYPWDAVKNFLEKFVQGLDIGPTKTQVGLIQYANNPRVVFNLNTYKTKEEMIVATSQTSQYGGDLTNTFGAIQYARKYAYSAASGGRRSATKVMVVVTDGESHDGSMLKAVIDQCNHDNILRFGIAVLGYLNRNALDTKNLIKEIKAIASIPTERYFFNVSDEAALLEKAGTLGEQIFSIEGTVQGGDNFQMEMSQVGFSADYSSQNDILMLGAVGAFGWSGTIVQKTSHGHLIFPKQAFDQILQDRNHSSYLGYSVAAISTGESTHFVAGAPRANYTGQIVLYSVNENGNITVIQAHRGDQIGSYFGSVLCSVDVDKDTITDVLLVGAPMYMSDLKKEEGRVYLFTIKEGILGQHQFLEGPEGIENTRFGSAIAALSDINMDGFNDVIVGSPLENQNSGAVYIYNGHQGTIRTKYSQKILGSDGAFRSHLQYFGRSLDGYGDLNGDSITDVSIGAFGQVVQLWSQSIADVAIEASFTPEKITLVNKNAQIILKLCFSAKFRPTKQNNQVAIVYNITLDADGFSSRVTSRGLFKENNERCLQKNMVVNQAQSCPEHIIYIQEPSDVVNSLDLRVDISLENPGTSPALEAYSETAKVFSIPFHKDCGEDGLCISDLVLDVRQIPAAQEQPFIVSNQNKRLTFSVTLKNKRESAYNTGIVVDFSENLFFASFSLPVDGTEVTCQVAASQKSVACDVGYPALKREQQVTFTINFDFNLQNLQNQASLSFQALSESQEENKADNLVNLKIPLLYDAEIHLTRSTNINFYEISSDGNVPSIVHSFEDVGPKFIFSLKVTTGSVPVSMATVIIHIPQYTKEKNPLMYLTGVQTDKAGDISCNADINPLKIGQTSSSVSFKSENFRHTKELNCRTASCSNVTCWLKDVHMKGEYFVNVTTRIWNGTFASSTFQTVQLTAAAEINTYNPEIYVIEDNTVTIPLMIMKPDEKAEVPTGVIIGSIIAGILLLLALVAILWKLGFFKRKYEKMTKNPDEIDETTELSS
UniProt P05556: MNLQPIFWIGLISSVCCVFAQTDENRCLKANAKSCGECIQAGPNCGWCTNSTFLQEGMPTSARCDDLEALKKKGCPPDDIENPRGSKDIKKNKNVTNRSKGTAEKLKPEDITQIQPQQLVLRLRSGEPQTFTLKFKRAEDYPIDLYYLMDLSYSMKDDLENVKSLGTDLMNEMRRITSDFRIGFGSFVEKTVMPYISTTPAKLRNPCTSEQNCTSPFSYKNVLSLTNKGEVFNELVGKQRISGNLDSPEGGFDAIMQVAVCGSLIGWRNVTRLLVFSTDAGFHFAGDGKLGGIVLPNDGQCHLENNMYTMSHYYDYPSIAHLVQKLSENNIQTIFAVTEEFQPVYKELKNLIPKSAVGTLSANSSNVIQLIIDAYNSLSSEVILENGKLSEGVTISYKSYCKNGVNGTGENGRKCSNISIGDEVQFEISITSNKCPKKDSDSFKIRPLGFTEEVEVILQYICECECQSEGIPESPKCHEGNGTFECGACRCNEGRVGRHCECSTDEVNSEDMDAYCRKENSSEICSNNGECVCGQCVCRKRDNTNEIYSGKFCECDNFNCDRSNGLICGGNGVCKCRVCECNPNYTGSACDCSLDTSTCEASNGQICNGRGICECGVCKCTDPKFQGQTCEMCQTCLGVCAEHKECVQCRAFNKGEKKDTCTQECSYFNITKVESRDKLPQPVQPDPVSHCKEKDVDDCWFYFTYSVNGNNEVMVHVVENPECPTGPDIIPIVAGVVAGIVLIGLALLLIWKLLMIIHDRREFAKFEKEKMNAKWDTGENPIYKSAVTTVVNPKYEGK

In test [2] the target is integrin α2β1 (human (endogenous in Saos-2)) (UniProt P17301+P05556). Described as above.

No constants are given. Whether binding was seen depends on the method and setting. Binding seen in cells or lysates may run through a third protein. Some results given as binding are weak or reduced against the parent protein; the word gives no strength.

For “integrin α2β1 (from UniProt P17301 30-1181; P05556 21-798) (complex)”, in test [1], the binding entry was “binds”.

B1: Transforming growth factor (TGF)-β-inducible gene-h3 (βig-h3) (protein, UniProt Q15582 24-683)
chain: T1 sequence
Consider B1, for which the binding result in test [2] is on record as “binds”.

The record behind these values is paper PMC3942417.
